Measurements reported in article PMC12171682, “Saarvienin A—A Novel Glycopeptide with Potent Activity against Drug‐Resistant Bacteria” (Angewandte Chemie (International Ed. in English), 2025).

Tested on: E. faecium DSM 17050 (VRE, vanA positive)
Settings: broth microdilution, cation-adjusted Mueller-Hinton Broth II, ~4 × 10⁵ CFU/mL, 37 °C, 24 h; mean of three independent biological replicates, each in technical triplicate

CN[C@H](CC(C)C)C(=O)N[C@H]1C(=O)N[C@@H](CC(N)=O)C(=O)N[C@H]2C(=O)N[C@H]3C(=O)N[C@H](C(=O)N[C@H](C(=O)O)c4cc(O)cc(O)c4-c4cc3ccc4O)[C@H](O)c3ccc(c(Cl)c3)Oc3cc2cc(c3O[C@@H]2O[C@H](CO)[C@@H](O)[C@H](O)[C@H]2O[C@H]2C[C@](C)(N)[C@H](O)[C@H](C)O2)Oc2ccc(cc2Cl)[C@H]1O [Vancomycin, vancomycin]
MIC, E. faecium DSM 17050 (VRE, vanA positive): >64 µg/mL
